Assay results: PubChem BioAssay AID1999 (Broad Institute, 2009)
The list shows a part of the results. Measured potencies and affinities stand elsewhere. Entries without a call are filed as inconclusive in the source.

Assay: activators of PrP 5'UTR-driven reporter translation, dose response, luminescence (AID 1999)
Conditions: H4 cells, PrP 5'UTR luciferase reporter; at 12 µM (top of the series) unless noted
Work on `COc1ccc(C(=O)n2c(N)nc3ccccc32)cc1OC` yielded an activation of 55.3%. Compound `O=C(Nc1ccc(F)cc1)/C(Cl)=C/c1ccccc1` has an activation of 133%. Work on `COC(=O)c1ccccc1NC(=O)c1cccc(COc2ccccc2Cl)c1` yielded an activation of 28.9%. In the case of `c1ccc(C2=NNC(c3ccccn3)=NN2)nc1`, the activation is reported as -4.7%. In the case of `Cc1c(-c2nc(N)nc(Nc3ccccc3F)n2)oc2ccccc12`, the activation is reported as 47.1%. Compound `O=C(N/N=C/c1ccccc1F)c1csc2c1CCCC2` has an activation of 67.4%. `COc1ccc(N2Cc3ccc(OC)c(OC)c3C2=O)cc1` gave an activation of 42.1%. Work on `Cc1nn(-c2ccccn2)c2c1-c1nc(N)ncc1CC2` yielded an activation of 38.2%. For `Cn1ncc2c(Nc3ccc4ccccc4c3)ncnc21`, the activation was 63.5%. For `Nc1c(C(=O)N2CCCCC2)sc2nc3c(cc12)CCCC3`, the activation was 47.7%. `Nc1nn(-c2cccc(F)n2)cc1-c1ccccc1` gave an activation of 70.5%. `CCOC(=O)c1sc(NC(=O)C(C)(C)C)cc1C` showed an activation of 95.2%. Work on `C=CCSc1nnc2c(n1)[nH]c1c(C)cccc12` yielded an activation of 99.1%. `O=C1C2C3CCC(C3)C2C(=O)N1c1ccc(OS(=O)(=O)c2ccccc2)cc1` (stereo unspecified) gave an activation of 54.3%. Compound `CCOC(=O)c1cc(-c2ccc3c(c2)OCCO3)n[nH]1` has an activation of 63.3%. For `CN(C)c1ccc(N=Cc2nc(-c3ccccc3)oc2OC(=O)c2cccc(Br)c2)cc1`, the activation was 43.9%. For `Cc1nn(-c2ccc(N3CCCCC3)nn2)c(C)c1CCC(=O)Nc1cccc(F)c1`, the activation was 57.9%. Work on `CCOC(=O)c1c(C)[nH]c(C2=NNC(=NC(C)COC)SC2)c1C` (stereo unspecified) yielded an activation of 43.6%. With `COc1ccc(N/C=C\C(=O)c2ccc3c(c2)OCO3)cc1` the activation was 42.2%. With `CC(C)c1ccc(C(=O)NNC(=O)C2C3CCC(C3)C2C(=O)O)cc1` (stereo unspecified) the activation was 54.1%. In the case of `Cc1ccc(/C=N/N=C/c2ccc(C)s2)s1`, the activation is reported as 54.5%. Compound `COc1ccc(NC(=O)NC(=O)c2ccccc2)cc1` has an activation of 58.4% [at 6 µM]. In the case of `CCCS(=O)(=O)NCc1cn2c(C)csc2n1`, the activation is reported as 76.5%. `O=C(NCCc1ccccc1)c1ccc(Cl)nc1` gave an activation of 20.9%. With `COc1cc(/C=N/NC(=Nc2ccc(C)cc2)c2nc3ccccc3s2)ccc1O` the activation was 48.3%. `O=[N+]([O-])c1cc(S(=O)(=O)/N=C(/c2ccccc2)N2CCOCC2)ccc1Cl` showed an activation of 14.2%. Work on `CCc1ccc(-c2ccc(C(=O)C(F)(F)F)[nH]2)cc1` yielded an activation of 80%. Work on `COc1ccc2c(c1)CC/C2=N\OC(=O)c1cccc(C)c1` yielded an activation of 84.4%. For `Cc1occc1C(=O)N=Nc1c(O)n(C)c2ccccc12`, the activation was 95.5% [at 6 µM]. Work on `CC(/C=N/NC(=O)c1cccc(F)c1)=C\c1ccccc1` yielded an activation of 24.9%. Work on `Cc1nn(-c2ccccc2)c(C)c1C(=O)OCC(=O)N(C)C1CCS(=O)(=O)C1` (stereo unspecified) yielded an activation of 70.4%. For `N=c1oc2c3c4c(cc2cc1C(=O)Nc1ccccc1)CCCN4CCC3`, the activation was 111%. Work on `Cc1ccc(-c2csc(NC(=O)C3=COCCO3)n2)cc1C` yielded an activation of 59.5%. With `O=C(Nc1ccccc1)C(=O)Nc1ccc2c(c1)N(C(=O)C1CC1)CCC2` the activation was 36.7%. `Cc1c2cnn(CC(=O)NC3CCCC3)c(=O)c2c(C)n1Cc1ccccc1` gave an activation of 53.7%. For `CCC1C(=O)n2nc(-c3ccccc3)cc2N=C1C` (stereo unspecified), the activation was 54.3%. With `Cc1ccc2nc(-c3ccc(NS(=O)(=O)c4c(C)n(C)c(=O)n(C)c4=O)cc3)sc2c1` the activation was 70.9%. In the case of `FC(F)Oc1ccc(C2N=C(c3ccccc3)NO2)cc1` (stereo unspecified), the activation is reported as 70%. In the case of `CC(C)(C)n1ncc2c(=O)n(CC(=O)c3ccc(Cl)cc3)cnc21`, the activation is reported as 67.4%. For `Cc1c(-c2nc(-c3ccc(C(F)(F)F)cc3)no2)n(C)oc1=O`, the activation was 25.5% [at 6 µM]. `Cc1ccc(-c2nc3nc4ccccc4nc3n2Cc2ccco2)cc1` gave an activation of 53.1%. With `O=C(c1ccccn1)c1cc2ccccc2n1S(=O)(=O)c1ccccc1` the activation was 64.2%. Work on `Cc1ccccc1-c1nnc(SCc2ccccc2)o1` yielded an activation of 64.5%. With `O=C(NCCS(=O)(=O)NCCc1ccccc1)c1ccc2c(c1)OCO2` the activation was 24.5%. Compound `CC(C)c1nc2oc3ccccc3c(=O)c2c(=O)n1-c1ccccc1` has an activation of 70.3%. In the case of `COc1ccc(-c2ccc(-c3nnn(CC(C)=O)n3)cc2)cc1`, the activation is reported as 49.5%. For `O=C(c1cccc(COc2ccc(Cl)cc2Cl)c1)N1CCN(c2ccccn2)CC1`, the activation was 91.8%. `COC(=O)c1ccc(OCc2cc(=O)n3ccsc3n2)cc1` gave an activation of 71.8%. For `CCN(CC)c1nc(C)nc2c1cnn2CCc1ccccc1`, the activation was 68.8%. Work on `Cc1nn(Cc2ccccc2)c(Cl)c1C(=O)NCCc1ccccc1` yielded an activation of 24%. For `CCOC(=O)c1sc2nc(NC(=O)C(C)(C)C)sc2c1C`, the activation was 75.4%. `C(/C=C/c1ccco1)=N/N1CCN(c2ccccc2)CC1` showed an activation of 83.2%. `Cc1csc2nc(CSc3nc4ccccc4o3)c(Br)n12` gave an activation of 64.9%. With `O=C(Nc1cnc2ccccc2c1)N1CCCCC1` the activation was 28.8%. Compound `Clc1c(CSc2nc3ccccc3o2)nc2ccccn12` has an activation of 4.2%. Compound `O=C(CCc1nnc(C2CCCCC2)o1)N1CCN(c2ccccc2F)CC1` has an activation of 118%. With `NC(=O)C1=C[C@H](C2CCCCC2)C[C@H](OCc2ccc(CO)cc2)O1` the activation was 44.4%. Compound `Cc1ccc(C(=O)Nc2ccc(C(F)(F)F)n(C)c2=O)cc1` has an activation of 84.7%. Compound `c1ccc(NC2=Nc3ccccc3CS2)cc1` has an activation of 111%. `Cn1c(=O)c(/C=C/c2ccccc2)nc2ccccc21` gave an activation of 106%. Compound `CCOC(=O)c1cnc(SCC(=O)c2ccccc2)nc1N` has an activation of 52.2%. For `CCOC(=O)c1sc(=NC(=O)c2ccc(C)c(C)c2)n(C)c1C`, the activation was 80.9%. For `COc1ccc(-n2nnnc2-c2nc3ccccc3s2)cc1`, the activation was 10.7%. `CCCc1cc(C(=O)NCC(C)C)no1` showed an activation of 59.5%. Compound `Cc1cc(=O)oc2cc(NC(=O)c3ccccc3Cl)ccc12` has an activation of 69%. `Nc1nc2ccccc2n1/N=C/c1ccc(-c2ccccc2)o1` gave an activation of 60%. For `Cc1ccc(C(=O)OCC(=O)c2cc(C)n(CC3CCCO3)c2C)cc1` (stereo unspecified), the activation was 68%. Work on `CCc1cc2c(=O)n(C(C)C(=O)OC3CCCCC3)cnc2s1` (stereo unspecified) yielded an activation of 86.1%. Compound `O=C(COc1ccc(Br)cc1Cl)NC1CCCCC1` has an activation of 85.9%. In the case of `C/C(N)=C(/C#N)C(=O)CSc1nc2ccc(C)cc2[nH]1`, the activation is reported as 76.3%. `CCOC(=O)CSc1nc(-c2ccncc2)ccc1C#N` gave an activation of 42.6%. Work on `O=C(COC(=O)c1ccc[nH]c1=O)NCCc1ccc(Cl)cc1Cl` yielded an activation of 52.8%. Work on `CC(C)(C)c1ccc(NC(=O)Nc2ccc(F)cc2)cc1` yielded an activation of 36%. Compound `O=C(Nc1ccc(Cl)cc1)c1ccc(OCC2CCCO2)cc1` (stereo unspecified) has an activation of 51.7%. Compound `CCc1sc(C(=O)Nc2ccc3c(c2)OCCO3)cc1Br` has an activation of 59.1%. Work on `O=C(Nc1nnc(-c2ccccc2F)s1)C1CCCO1` (stereo unspecified) yielded an activation of 79.5%. For `O=C(c1cnn(-c2ccc(Cl)cc2)c1)c1ccccc1O`, the activation was 58.3%. Work on `Cc1ccsc1C(=O)Nc1ccc(OCc2ccccc2)cc1` yielded an activation of 55.6%. Compound `CCCOc1cccc(-c2nc3ccccc3c(=O)o2)c1` has an activation of 96.2%. In the case of `Cc1ccc(-n2c(C)cc(C(=O)COC(=O)c3c(C)noc3C)c2C)cc1`, the activation is reported as 52.4%. `Cc1nnc2n(c1=O)N=C(c1ccc(Cl)cc1)CS2` showed an activation of 65%. For `Cc1ccc2nc(C3CCCCC3)[nH]c2c1`, the activation was 52.6%. Work on `Cc1ccc(OC(=O)c2cccc([N+](=O)[O-])c2)c(-n2nc3ccccc3n2)c1` yielded an activation of 83.7%. `C(=C\c1ccccc1)/C=N/Nc1nc2ccccc2s1` showed an activation of 58.4%. Compound `C=CCNC(=O)c1cc2c(=O)n3ccccc3nc2s1` has an activation of 29.1%. With `COCCNC(=O)/C(C#N)=C/c1cc(C)n(C2CCCCC2)c1C` the activation was 29.7%. `Nc1nc(CSc2ncccn2)nc(Nc2ccccc2)n1` showed an activation of 64.4%. With `Clc1ccccc1-c1nc(-c2ccccc2)n[nH]1` the activation was 125%. Compound `CCCCSc1ncc(C(=O)OCC)c(N)n1` has an activation of 70.5%. `O=C(Cc1nc(=O)c2ccccc2s1)Nc1ccccc1` showed an activation of 56.9%. For `Cc1cccc(NC(=S)NNC(=O)c2csc(C(C)C)c2)c1`, the activation was 94%. With `Cc1ccc(-n2ncc(Cl)c2C(=O)NC2CC2)cc1` the activation was 98.4%. Compound `CC(=O)c1cnc2cc(-c3ccc(C)cc3)nn2c1C` has an activation of 69.7%. `N#Cc1c(-c2ccc(Cl)cc2)ccn2nc(C3CCCCC3)nc12` gave an activation of 51.3%. Work on `COc1ccc(C2C(=O)c3ccccc3C2=O)c(OC)c1` yielded an activation of 55.2%. `Cc1ccccc1/C=C1\CCCc2ccccc2C1=O` gave an activation of 65.8%. `Cc1ccc(Nc2nc(-c3ccncc3)cs2)cc1` showed an activation of 137%. Compound `Cc1ccc(-n2nc3c(n2)/C(=N/O)CC/C3=N\O)cc1` has an activation of 49.9%. For `c1csc(C2=NNC(=NC3CCCCC3)SC2)c1`, the activation was 61.6%. `CCN1C(=S)SC(=O)C1=C1C=C(C)N(CCO)C(C)=C1` gave an activation of 53.6%. For `Nc1nc(Nc2ccccc2F)sc1C(=O)c1ccccc1`, the activation was 52.8%. With `COc1ccc(-n2ncc3c(N4CCc5ccccc54)ncnc32)cc1` the activation was -8.6%. In the case of `O=c1c2ccccc2nc(-c2ccco2)n1Cc1ccccc1`, the activation is reported as 112%. With `O=C(COC(=O)c1cccs1)c1ccc2c(c1)OCCO2` the activation was 106%. Compound `Clc1ccc2nc(CSCc3ccccc3)cn2c1` has an activation of 48.5%. `Nc1ccc2nc(-c3ccccn3)[nH]c2c1` showed an activation of 43.1%. `CC1CCc2c(sc(NC(=O)c3nc4ncccn4n3)c2C#N)C1` (stereo unspecified) showed an activation of 41.3% [at 6 µM]. Compound `COc1ccc2c(c1OC)C(=O)OC2Nc1nc(-c2ccc(-c3ccccc3)cc2)cs1` (stereo unspecified) has an activation of 81.1%. With `Cc1ccc(OCCn2cnc3ccccc3c2=O)c([N+](=O)[O-])c1` the activation was 52.1%. In the case of `COC(=O)CSc1nc2cc3c(cc2cc1C#N)OCO3`, the activation is reported as 49.9%. In the case of `CC(=O)/C(N=Nc1ccc2c(c1)OCO2)=C(\C)O`, the activation is reported as 79.7%. For `Clc1ccc(-c2cnc(Oc3ccccc3)nc2)cc1`, the activation was 54.9%. For `O=C(Nc1ccc2ccccc2n1)c1ccccc1Br`, the activation was 40.7%. Work on `c1ccc(N2CCN(c3nc4cc5c(cc4s3)OCO5)CC2)cc1` yielded an activation of 28.4%. `COc1cccc(COC(=O)Nc2ccccc2F)c1` showed an activation of 82.3%. For `Cc1c(C(=O)Nc2ccccn2)oc2ccccc12`, the activation was 106%. `Cc1nc2c3cnn(-c4ccc(C)c(C)c4)c3ncn2n1` showed an activation of 33.4%. For `COc1ccc(C2=NC(c3ccccc3)CO2)cc1` (stereo unspecified), the activation was 66.8%. Compound `Cc1cc(C)c(NN=c2c(=O)c3ccccc3c2=O)c(C)c1` has an activation of 68.3%. Work on `O=C(N=C1SCC(=O)N1c1ccccc1Cl)c1ccco1` yielded an activation of 123%. In the case of `O=C(Nc1ccc(N2CCOCC2)c(Cl)c1)c1ccc(Br)o1`, the activation is reported as 45%.
